Source: publication PMC13013135 (European Journal of Nuclear Medicine and Molecular Imaging, 2025)

Legend:
[1] = general procedure: Fmoc solid-phase peptide synthesis; Fmoc-Glu(OtBu)-preloaded Wang resin; 2-CTC resin for the Aad analog; COMU (dye conjugation in solution); conditions: for conjugation yield: based on starting peptide
[2] = general procedure: Fmoc solid-phase peptide synthesis; 2-CTC; COMU (dye conjugation in solution); conditions: whole synthesis, scale of the general procedure 0.33 mmol
[3] = general procedure: Fmoc solid-phase peptide synthesis; Fmoc-Glu(OtBu)-Wang; COMU (dye conjugation in solution); conditions: whole synthesis, based on resin-bound Fmoc-Glu(OtBu)-OH, scale of the general procedure 0.33 mmol

Which results are given for Ac-mas3-k(Sulfo-Cy5)-y-nal-k-Sub-Ku-Aad?
final HPLC purity ([1]; conjugation step): >94%; conjugation yield ([1]; conjugation step): 12%

For Ac-mas3-k(Sulfo-Cy5)-y-nal-k-Sub-KuE, which “final HPLC purity” value ([1]; conjugation step) is on record?
Its value is over 97%.

And the conjugation yield ([1]; conjugation step)?
Its conjugation yield is 12%.

Which “final HPLC purity” value ([1]; conjugation step) does the source give for Ac-mas3-k(Sulfo-Cy7-I)-y-nal-k-Sub-KuE here?
The value was over 96%.

What about the conjugation yield ([1]; conjugation step) of the same substance?
Its conjugation yield is 21%.

Which results are given for Ac-mas3-k(Sulfo-Cy7-II)-y-nal-k-Sub-KuE?
final HPLC purity ([1]; conjugation step): >90%; conjugation yield ([1]; conjugation step): 9%

With Ac-mas3-k-y-nal-k-Sub-Ku-Aad as the substance, how does the crude yield [2] read?
The crude yield was 8%.

What does the source list for Ac-mas3-k-y-nal-k-Sub-KuE?
crude yield [3]: 30%; final HPLC purity ([1]; whole synthesis, scale of the general procedure 0.33 mmol): >95%
